Measurements reported in PubChem BioAssay AID1259405 (NCATS, 2018)

Assay: 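Knock-downs that lift recombinant protein yield in hamster ovary cells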 (primary screen)
System: Chinese hamster CHO-K1 ovary cells with stable secreted eGFP expression
Reagent: single siRNA against mouse genes, 0.8 pmol siRNA per well (2 µl of 400 nM stock)
Timing: 3 days
Detection: 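Per-well intracellular GFP measured by laser scanning cytometry, plus viability from ATP luminescence, each relative to plate median of non-targeting control wells, in %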
Direction: GFP, % of control: higher = more GFP per well, higher productivity; viability (ATP), % of control: higher = more viable cells (more ATP)
Rule for the call: 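Called active when intracellular GFP, relative to negative control, is at or above 120%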
The whole screen tested about 50,000 reagents; this is a part drawn at random. In the full data, about 4,000 (8%) are marked active. 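Mouse siRNA library applied to hamster cells; one well for each siRNA.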 Entries without a mark were called inactive. Reagents against one gene are numbered here. No sequences are given here.

| GFP, % of control | viability (ATP), % of control | gene | reagent |
| --- | --- | --- | --- |
| 45.9 | 15 | Cdk3 | 1 |
| 94 | 90.3 | Cdk3 | 2 |
| 69.7 | 57.1 | Cdk3 | 3 |
| 53.5 | 52.1 | Or51a39 | 1 |
| 86.2 | 65.3 | Or51a39 | 2 |
| 40.3 | 87.1 | Or51a39 | 3 |
| 108 | 86.4 | Tspyl3 | 1 |
| 83.8 | 80.3 | Tspyl3 | 2 |
| 91.8 | 87.6 | Tspyl3 | 3 |
| 95.6 | 75 | Capn15 | 1 |
| 47.1 | 58 | Capn15 | 2 |
| 82.6 | 67.5 | Capn15 | 3 |
| 87.7 | 87.9 | Ikbkb | 1 |
| 45.1 | 37.5 | Dbt | 1 |
| 43.7 | 61.2 | Dbt | 2 |
| 104 | 81.2 | Dbt | 3 |
| 91.8 | 68.1 | Eps8l3 | 1 |
| 125 (active) | 75.3 | Eps8l3 | 2 |
| 102 | 95.2 | Eps8l3 | 3 |
| 42.4 | 52.3 | Or11l3 | 1 |
| 87.3 | 74.7 | Or11l3 | 2 |
| 88.8 | 75.5 | Or11l3 | 3 |
| 82.3 | 75.9 | Pink1 | 1 |
| 98.8 | 105 | Or2r11 | 1 |
| 63.8 | 45.7 | Or2r11 | 2 |
| 73.1 | 66.1 | Or2r11 | 3 |
| 60.8 | 60.7 | Prss33 | 1 |
| 24.7 | 16.1 | Prss33 | 2 |
| 74.1 | 70.1 | Prss33 | 3 |
| 86.7 | 63.8 | Tk2 | 1 |
| 58.1 | 57.4 | Tk2 | 2 |
| 58.2 | 44.6 | Tk2 | 3 |
| 82.3 | 122 | Col9a2 | 1 |
| 95.5 | 97.6 | Col9a2 | 2 |
| 55.9 | 64.4 | Cyp39a1 | 1 |
| 91.9 | 114 | Cyp39a1 | 2 |
| 79.8 | 82.6 | Cyp39a1 | 3 |
| 89.5 | 84.4 | Adamts16 | 1 |
| 101 | 74 | Adamts16 | 2 |
| 44.2 | 14.9 | Adamts16 | 3 |
| 121 (active) | 106 | 1810009N02Rik | 1 |
| 53.7 | 59.1 | 1810009N02Rik | 2 |
| 49.2 | 94 | 1810009N02Rik | 3 |
| 61.7 | 74.7 | Gm4841 | 1 |
| 73.9 | 48.7 | Gm4841 | 2 |
| 68.8 | 51.9 | Gm4841 | 3 |
| 86.7 | 65.4 | Pla2g10 | 1 |
| 58.7 | 71.7 | Pla2g10 | 2 |
| 91.8 | 75.3 | Pla2g10 | 3 |
| 85.4 | 55.4 | Nt5c3 | 1 |
| 73.5 | 86.7 | Nt5c3 | 2 |
| 73 | 56.8 | Nt5c3 | 3 |
| 99.5 | 55.8 | Lhfpl6 | 1 |
| 99.6 | 74.5 | Lhfpl6 | 2 |
| 88.5 | 81.6 | Lhfpl6 | 3 |
| 57.1 | 31 | Spam1 | 1 |
| 86.6 | 89.5 | Spam1 | 2 |
| 57.4 | 42.2 | Spam1 | 3 |
| 87.1 | 65.2 | Lce1i | 1 |
| 80.9 | 41.4 | Lce1i | 2 |
| 72.6 | 71.6 | Lce1i | 3 |
| 77.4 | 83.2 | Lyrm1 | 1 |
| 78.6 | 74.9 | Lyrm1 | 2 |
| 80.5 | 81.2 | Lyrm1 | 3 |
| 81.7 | 86.5 | Mtmr4 | 1 |
| 82.5 | 60.1 | Mtmr4 | 2 |
| 87.8 | 80.5 | Mtmr4 | 3 |
| 44.6 | 46.7 | Zkscan5 | 1 |
| 101 | 106 | Zkscan5 | 2 |
| 105 | 79.9 | Zkscan5 | 3 |
| 69.1 | 80.1 | Ccdc38 | 1 |
| 69.7 | 98 | Ccdc38 | 2 |
| 74.8 | 86.1 | Ccdc38 | 3 |
| 64.9 | 63.6 | Sptssb | 1 |
| 63.1 | 66.3 | Sptssb | 2 |
| 69 | 39.5 | Sptssb | 3 |
| 108 | 111 | Casd1 | 1 |
| 94.6 | 82 | Casd1 | 2 |
| 99.5 | 93.5 | Nrgn | 1 |
| 87 | 115 | Nrgn | 2 |
| 147 (active) | 72.6 | Slc35a2 | 1 |
| 39.1 | 34.3 | Slc35a2 | 2 |
| 83.9 | 72.8 | Slc35a2 | 3 |
| 79.5 | 73.1 | Lrrc8a | 1 |
| 24.1 | 31.2 | Lrrc8a | 2 |
| 79.2 | 26.6 | Lrrc8a | 3 |

A portion from the list above:
| GFP, % of control | viability (ATP), % of control | gene | reagent |
| --- | --- | --- | --- |
| 89.5 | 84.4 | Adamts16 | 1 |
| 101 | 74 | Adamts16 | 2 |
| 44.2 | 14.9 | Adamts16 | 3 |
| 121 (active) | 106 | 1810009N02Rik | 1 |
| 53.7 | 59.1 | 1810009N02Rik | 2 |
| 49.2 | 94 | 1810009N02Rik | 3 |
| 61.7 | 74.7 | Gm4841 | 1 |
| 73.9 | 48.7 | Gm4841 | 2 |
| 68.8 | 51.9 | Gm4841 | 3 |
| 86.7 | 65.4 | Pla2g10 | 1 |
| 58.7 | 71.7 | Pla2g10 | 2 |
| 91.8 | 75.3 | Pla2g10 | 3 |
